Where two headings read alike, the source gives them in different places. Results are given in words; binding and its absence hold for the method and conditions named. In cells and extracts the contact can be indirect. Some entries that bind do so weakly or less than the wild type. For some assays here: Tags and fused reporters may be left off the sequences shown. Each block holds one molecule with its values, some of them ahead of it.
How the values were obtained:
[1] = target: T1, Flag-3BP2 (mouse) (UniProt Q06649); assay: co-IP; tagged constructs cotransfected in HEK293T; immune complexes of the tagged bait (HA-SRC, HA-SYK, Flag-TLR2, Myc-TLR2, Flag-3BP2) on Dynabeads Protein A or G at 4 C, Western blot; with or without coexpressed SRC (Figure 1L)
T1 sequence: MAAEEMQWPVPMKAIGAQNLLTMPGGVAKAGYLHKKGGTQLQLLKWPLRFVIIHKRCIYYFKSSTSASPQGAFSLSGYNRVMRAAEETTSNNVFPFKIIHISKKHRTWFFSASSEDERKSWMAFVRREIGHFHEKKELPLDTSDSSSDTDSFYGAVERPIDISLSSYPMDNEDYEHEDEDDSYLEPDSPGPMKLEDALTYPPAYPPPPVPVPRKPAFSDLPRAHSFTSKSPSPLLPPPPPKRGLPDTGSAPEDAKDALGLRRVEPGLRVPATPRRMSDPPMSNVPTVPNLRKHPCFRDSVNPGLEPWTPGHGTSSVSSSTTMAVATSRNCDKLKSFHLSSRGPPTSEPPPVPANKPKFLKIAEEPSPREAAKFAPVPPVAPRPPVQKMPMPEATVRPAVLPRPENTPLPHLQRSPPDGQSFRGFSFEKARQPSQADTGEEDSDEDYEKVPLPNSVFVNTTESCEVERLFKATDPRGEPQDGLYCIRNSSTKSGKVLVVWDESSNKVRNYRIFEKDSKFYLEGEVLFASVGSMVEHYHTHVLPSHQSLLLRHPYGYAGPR

The chains behind the UniProt entries cited, without tags or fusion partners. Where a name states a change or a piece, a line headed by the entry shows the natural chain unless it says otherwise.
UniProt P22366: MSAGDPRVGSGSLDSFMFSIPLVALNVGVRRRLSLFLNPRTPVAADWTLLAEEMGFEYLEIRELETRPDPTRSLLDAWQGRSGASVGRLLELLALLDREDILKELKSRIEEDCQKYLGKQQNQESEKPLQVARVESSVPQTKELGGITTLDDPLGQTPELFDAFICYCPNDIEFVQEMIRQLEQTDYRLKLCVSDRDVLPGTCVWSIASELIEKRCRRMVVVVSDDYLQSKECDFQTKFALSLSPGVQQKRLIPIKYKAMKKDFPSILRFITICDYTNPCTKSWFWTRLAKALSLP
UniProt O60603: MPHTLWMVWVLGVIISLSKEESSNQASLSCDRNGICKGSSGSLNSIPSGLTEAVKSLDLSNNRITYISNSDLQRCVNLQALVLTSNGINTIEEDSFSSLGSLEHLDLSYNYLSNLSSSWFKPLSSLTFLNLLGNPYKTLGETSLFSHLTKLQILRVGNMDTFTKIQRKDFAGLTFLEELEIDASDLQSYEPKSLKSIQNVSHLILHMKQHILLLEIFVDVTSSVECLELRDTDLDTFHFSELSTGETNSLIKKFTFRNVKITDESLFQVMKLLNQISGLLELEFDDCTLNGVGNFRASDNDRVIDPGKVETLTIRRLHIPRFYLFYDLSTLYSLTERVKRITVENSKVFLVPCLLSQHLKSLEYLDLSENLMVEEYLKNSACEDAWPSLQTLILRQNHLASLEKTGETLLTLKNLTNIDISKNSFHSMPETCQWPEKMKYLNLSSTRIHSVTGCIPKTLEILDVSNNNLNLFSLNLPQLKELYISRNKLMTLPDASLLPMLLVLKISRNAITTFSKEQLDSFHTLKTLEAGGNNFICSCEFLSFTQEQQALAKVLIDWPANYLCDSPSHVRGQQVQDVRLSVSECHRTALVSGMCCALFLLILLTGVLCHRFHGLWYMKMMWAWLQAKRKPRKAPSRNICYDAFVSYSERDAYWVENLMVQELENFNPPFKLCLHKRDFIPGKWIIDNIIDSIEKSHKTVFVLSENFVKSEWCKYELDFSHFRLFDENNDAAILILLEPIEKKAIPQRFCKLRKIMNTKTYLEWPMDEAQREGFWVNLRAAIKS

[2] = target: GST-MyD88 (mouse) (UniProt P22366); assay: pull-down; GST-MyD88 cotransfected with Myc-TLR2 variants in HEK293T; GST-tagged protein collected with Glutathione Sepharose 4B, Western blot; with or without SRC and SYK inhibitors
[3] = target: T1, Flag-3BP2 (mouse); assay: co-IP; tagged constructs cotransfected in HEK293T; immune complexes of the tagged bait (HA-SRC, HA-SYK, Flag-TLR2, Myc-TLR2, Flag-3BP2) on Dynabeads Protein A or G at 4 C, Western blot; with or without coexpressed SRC (Figure 1L); remark: listed apart in the source
[4] = target: Myc-TLR2 (WT) (human) (UniProt O60603); assay: as above

binding [1]: binds
binding [2]: binds
Molecule: Myc-TLR2 (WT) (from UniProt O60603 21-784) (receptor)

binding [1]: binds
Molecule: GST-MyD88 (from UniProt P22366 1-296)

binding [3]: binds
B1: HA-TRAF6 (protein, UniProt P70196 1-530)
chain: MSLLNCENSCGSSQSSSDCCAAMAASCSAAVKDDSVSGSASTGNLSSSFMEEIQGYDVEFDPPLESKYECPICLMALREAVQTPCGHRFCKACIIKSIRDAGHKCPVDNEILLENQLFPDNFAKREILSLTVKCPNKGCLQKMELRHLEDHQVHCEFALVNCPQCQRPFQKCQVNTHIIEDCPRRQVSCVNCAVSMAYEEKEIHDQSCPLANIICEYCGTILIREQMPNHYDLDCPTAPIPCTFSVFGCHEKMQRNHLARHLQENTQLHMRLLAQAVHNVNLALRPCDAASPSRGCRPEDPNYEETIKQLESRLVRQDHQIRELTAKMETQSMYVGELKRTIRTLEDKVAEMEAQQCNGIYIWKIGNFGMHLKSQEEERPVVIHSPGFYTGRPGYKLCMRLHLQLPTAQRCANYISLFVHTMQGEYDSHLPWPFQGTIRLTILDQSEALIRQNHEEVMDAKPELLAFQRPTIPRNPKGFGYVTFMHLEALRQGTFIKDDTLLVRCEVSTRFDMGGLRKEGFQPRSTDAGV

binding [4]: binds
B2: GST-PPP1R11 (enzyme, UniProt O60927 1-126)
chain: MAEAGAGLSETVTETTVTVTTEPENRSLTIKLRKRKPEKKVEWTSDTVDNEHMGRRSSKCCCIYEKPRAFGESSTESDEEEEEGCGHTHCVRGHRKGRRRATLGPTPTTPPQPPDPSQPPPGPMQH
